# In the supplement of paper PMC8728848:
# The other results are listed elsewhere or left out.
# Legend:
# Assay in all cases: glycan array binding signal (z-score within array); higher = stronger binding
# Conditions in all cases: glycan notation: IUPAC condensed, linker removed
# [1] = molecular target: Neu5Ac(a2-3)Gal(b1-4)GlcNAc(b1-3)Gal
# In short: (§1)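 The binding signal is a Z-score computed within each array and averaged over linkers. Arrays of the same protein sequence at different concentrations or buffers were also averaged together. Data originate from 3228 arrays in the Consortium for Functional Glycomics database, kept only where the protein sequence was available.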
# [2] = molecular target: Neu5Ac(a2-3)Gal(b1-4)GlcNAc(b1-3)Gal(b1-3)GlcNAc
# In short: as §1
# [3] = molecular target: Neu5Ac(a2-3)Gal(b1-4)GlcNAc(b1-3)Gal(b1-4)GlcNAc
# In short: as §1
# [4] = molecular target: Neu5Ac(a2-3)Gal(b1-4)GlcNAc(b1-3)Gal(b1-4)GlcNAc(b1-3)Gal(b1-4)GlcNAc
# In short: as §1
# [5] = molecular target: Neu5Ac(a2-3)Gal(b1-4)GlcNAc(b1-3)Gal(b1-4)[Fuc(a1-3)]GlcNAc
# In short: as §1
# [6] = molecular target: Neu5Ac(a2-3)Gal(b1-4)GlcNAc(b1-3)GalNAc
# In short: as §1
# [7] = molecular target: Neu5Ac(a2-3)Gal(b1-4)GlcNAc(b1-6)[Gal(b1-3)]GalNAc
# In short: as §1
# [8] = molecular target: Neu5Ac(a2-3)Gal(b1-4)GlcNAc(b1-6)[Neu5Ac(a2-3)Gal(b1-3)]GalNAc
# In short: as §1
# [9] = molecular target: Neu5Ac(a2-3)Gal(b1-4)GlcNAc6S
# In short: as §1
# [10] = molecular target: Neu5Ac(a2-3)Gal(b1-4)[Fuc(a1-3)]GlcNAc
# In short: as §1
# [11] = molecular target: Neu5Ac(a2-3)Gal(b1-4)[Fuc(a1-3)]GlcNAc(b1-3)Gal
# In short: as §1
# [12] = molecular target: Neu5Ac(a2-3)Gal(b1-4)[Fuc(a1-3)]GlcNAc(b1-3)Gal(b1-4)GlcNAc
# In short: as §1
# [13] = molecular target: Neu5Ac(a2-3)Gal(b1-4)[Fuc(a1-3)]GlcNAc(b1-3)Gal(b1-4)[Fuc(a1-3)]GlcNAc(b1-3)Gal(b1-4)[Fuc(a1-3)]GlcNAc
# In short: as §1
# [14] = molecular target: Neu5Ac(a2-3)Gal(b1-4)[Fuc(a1-3)]GlcNAc(b1-3)GalNAc
# In short: as §1
# [15] = molecular target: Neu5Ac(a2-3)Gal(b1-4)[Fuc(a1-3)]GlcNAc(b1-6)[Gal(b1-3)]GalNAc
# In short: as §1
# [16] = molecular target: Neu5Ac(a2-3)Gal(b1-4)[Fuc(a1-3)]GlcNAc6S
# In short: as §1
# [17] = molecular target: Neu5Ac(a2-3)Gal6S(b1-4)GlcNAc
# In short: as §1
# [18] = molecular target: Neu5Ac(a2-3)Gal6S(b1-4)[Fuc(a1-3)]GlcNAc
# In short: as §1
# [19] = molecular target: Neu5Ac(a2-3)GalNAc
# In short: as §1
# [20] = molecular target: Neu5Ac(a2-3)GalNAc(b1-4)GlcNAc
# In short: as §1
# [21] = molecular target: Neu5Ac(a2-3)[GalNAc(b1-4)]Gal(b1-4)Glc
# In short: as §1
# [22] = molecular target: Neu5Ac(a2-3)[GalNAc(b1-4)]Gal(b1-4)GlcNAc
# In short: as §1
# [23] = molecular target: Neu5Ac(a2-3)[GalNAc(b1-4)]Gal(b1-4)GlcNAc(b1-3)GalNAc
# In short: as §1
# [24] = molecular target: Neu5Ac(a2-3)[Neu5Ac(a2-6)]GalNAc
# In short: as §1
# [25] = molecular target: Neu5Ac(a2-6)Gal
# In short: as §1
# [26] = molecular target: Neu5Ac(a2-6)Gal(b1-3)GlcNAc(b1-3)[Gal(b1-4)GlcNAc(b1-6)]Gal(b1-4)Glc
# In short: as §1
# [27] = molecular target: Neu5Ac(a2-6)Gal(b1-4)Glc
# In short: as §1
# [28] = molecular target: Neu5Ac(a2-6)Gal(b1-4)GlcNAc
# In short: as §1
# [29] = molecular target: Neu5Ac(a2-6)Gal(b1-4)GlcNAc(b1-2)Man(a1-3)Man(b1-4)GlcNAc(b1-4)GlcNAc
# In short: as §1
# [30] = molecular target: Neu5Ac(a2-6)Gal(b1-4)GlcNAc(b1-2)Man(a1-3)[Gal(b1-4)GlcNAc(b1-2)Man(a1-6)]Man(b1-4)GlcNAc(b1-4)GlcNAc
# In short: as §1
# [31] = molecular target: Neu5Ac(a2-6)Gal(b1-4)GlcNAc(b1-2)Man(a1-3)[GlcNAc(b1-2)Man(a1-6)]Man(b1-4)GlcNAc(b1-4)GlcNAc
# In short: as §1
# [32] = molecular target: Neu5Ac(a2-6)Gal(b1-4)GlcNAc(b1-2)Man(a1-3)[GlcNAc(b1-2)Man(b1-4)GlcNAc(b1-2)Man(a1-6)]Man(b1-4)GlcNAc(b1-4)GlcNAc
# In short: as §1
# [33] = molecular target: Neu5Ac(a2-6)Gal(b1-4)GlcNAc(b1-2)Man(a1-3)[Man(a1-6)]Man(b1-4)GlcNAc(b1-4)GlcNAc
# In short: as §1
# [34] = molecular target: Neu5Ac(a2-6)Gal(b1-4)GlcNAc(b1-2)Man(a1-3)[Neu5Ac(a2-6)Gal(b1-4)GlcNAc(b1-2)Man(a1-6)]Man(b1-4)GlcNAc(b1-4)GlcNAc
# In short: as §1
# [35] = molecular target: Neu5Ac(a2-6)Gal(b1-4)GlcNAc(b1-2)Man(a1-6)Man(b1-4)GlcNAc(b1-4)GlcNAc
# In short: as §1
binder,measurement,setting,value
"Protectin (Homo sapiens), P13987 (protein) MGIQGGSVLFGLLLVLAVFCHSGHSLQCYNCPNPTADCKTAVNCSSDFDACLITKAGLQVYNKCWKFEHCNFNDVTTRLRENELTYYCCKKDLCNFNEQLENGGTSLSEKTVLLLVTPFLAAAWSLHP",glycan array binding signal (z-score),[1],-0.777
same,glycan array binding signal (z-score),[2],-0.569
same,glycan array binding signal (z-score),[3],0.462
same,glycan array binding signal (z-score),[4],0.847
same,glycan array binding signal (z-score),[5],0.647
same,glycan array binding signal (z-score),[6],0.19
same,glycan array binding signal (z-score),[7],-0.015
same,glycan array binding signal (z-score),[8],-0.641
same,glycan array binding signal (z-score),[9],-1.05
same,glycan array binding signal (z-score),[10],-0.896
same,glycan array binding signal (z-score),[11],0.657
same,glycan array binding signal (z-score),[12],1.69
same,glycan array binding signal (z-score),[13],0.776
same,glycan array binding signal (z-score),[14],1.9
same,glycan array binding signal (z-score),[15],-0.153
same,glycan array binding signal (z-score),[16],-0.655
same,glycan array binding signal (z-score),[17],0.408
same,glycan array binding signal (z-score),[18],-0.397
same,glycan array binding signal (z-score),[19],0.697
same,glycan array binding signal (z-score),[20],-0.193
same,glycan array binding signal (z-score),[21],-1.06
same,glycan array binding signal (z-score),[22],-0.485
same,glycan array binding signal (z-score),[23],0.609
same,glycan array binding signal (z-score),[24],-0.657
same,glycan array binding signal (z-score),[25],-0.918
same,glycan array binding signal (z-score),[26],-1.48
same,glycan array binding signal (z-score),[27],-0.678
same,glycan array binding signal (z-score),[28],-0.169
same,glycan array binding signal (z-score),[29],1.36
same,glycan array binding signal (z-score),[30],-1.94
same,glycan array binding signal (z-score),[31],0.262
same,glycan array binding signal (z-score),[32],-0.227
same,glycan array binding signal (z-score),[33],-0.914
same,glycan array binding signal (z-score),[34],0.761
same,glycan array binding signal (z-score),[35],-0.039

# Part of the list above, with tabs:
binder	measurement	setting	value
Protectin (Homo sapiens), P13987 (protein) MGIQGGSVLFGLLLVLAVFCHSGHSLQCYNCPNPTADCKTAVNCSSDFDACLITKAGLQVYNKCWKFEHCNFNDVTTRLRENELTYYCCKKDLCNFNEQLENGGTSLSEKTVLLLVTPFLAAAWSLHP	glycan array binding signal (z-score)	[31]	0.262
same	glycan array binding signal (z-score)	[32]	-0.227
